log2 fold change data for 28 targets are collected here from the supplement of paper PMC12819154, “High-throughput peptide-centric local stability assay extends protein–ligand identification to membrane proteins, tissues and bacteria” (Nature Structural & Molecular Biology, 2025).

Protein sequences, listed by entry. Tags and fused reporters are not part of them. Lines headed by an entry give the natural chain unless they say otherwise; changes in a name come on top.
UniProt Q9DCC3: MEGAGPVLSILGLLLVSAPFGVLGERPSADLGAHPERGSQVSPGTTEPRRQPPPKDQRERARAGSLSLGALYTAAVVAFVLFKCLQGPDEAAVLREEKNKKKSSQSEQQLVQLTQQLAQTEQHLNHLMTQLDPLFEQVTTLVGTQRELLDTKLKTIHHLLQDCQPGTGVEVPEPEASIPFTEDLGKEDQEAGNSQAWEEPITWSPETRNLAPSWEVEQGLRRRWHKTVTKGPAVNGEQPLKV
UniProt Q9EQI8: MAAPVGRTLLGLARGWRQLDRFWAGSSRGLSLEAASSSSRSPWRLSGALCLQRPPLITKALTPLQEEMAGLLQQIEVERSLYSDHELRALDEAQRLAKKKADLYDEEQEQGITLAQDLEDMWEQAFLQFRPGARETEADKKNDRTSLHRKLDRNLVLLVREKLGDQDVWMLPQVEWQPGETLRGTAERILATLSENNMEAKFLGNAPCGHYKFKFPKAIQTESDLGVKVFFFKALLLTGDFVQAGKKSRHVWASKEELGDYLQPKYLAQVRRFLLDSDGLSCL
UniProt Q9DBU3: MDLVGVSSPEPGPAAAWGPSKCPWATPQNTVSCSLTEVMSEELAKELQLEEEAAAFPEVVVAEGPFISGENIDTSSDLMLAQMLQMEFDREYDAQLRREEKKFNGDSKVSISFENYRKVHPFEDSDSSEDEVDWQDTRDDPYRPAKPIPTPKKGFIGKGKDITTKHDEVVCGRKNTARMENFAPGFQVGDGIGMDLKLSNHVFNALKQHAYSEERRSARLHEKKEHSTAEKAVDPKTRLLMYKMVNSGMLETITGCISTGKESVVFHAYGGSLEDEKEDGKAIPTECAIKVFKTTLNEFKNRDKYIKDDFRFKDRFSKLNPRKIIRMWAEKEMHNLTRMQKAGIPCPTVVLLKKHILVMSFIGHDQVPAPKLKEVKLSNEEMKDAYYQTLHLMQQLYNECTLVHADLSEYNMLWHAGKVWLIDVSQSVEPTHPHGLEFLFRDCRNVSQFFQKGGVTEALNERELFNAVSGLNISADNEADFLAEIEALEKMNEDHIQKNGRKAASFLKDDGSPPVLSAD
UniProt Q9EQS3: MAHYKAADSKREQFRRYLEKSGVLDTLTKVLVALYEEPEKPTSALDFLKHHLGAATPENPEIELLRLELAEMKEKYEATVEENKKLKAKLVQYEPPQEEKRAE
UniProt Q9EQ09: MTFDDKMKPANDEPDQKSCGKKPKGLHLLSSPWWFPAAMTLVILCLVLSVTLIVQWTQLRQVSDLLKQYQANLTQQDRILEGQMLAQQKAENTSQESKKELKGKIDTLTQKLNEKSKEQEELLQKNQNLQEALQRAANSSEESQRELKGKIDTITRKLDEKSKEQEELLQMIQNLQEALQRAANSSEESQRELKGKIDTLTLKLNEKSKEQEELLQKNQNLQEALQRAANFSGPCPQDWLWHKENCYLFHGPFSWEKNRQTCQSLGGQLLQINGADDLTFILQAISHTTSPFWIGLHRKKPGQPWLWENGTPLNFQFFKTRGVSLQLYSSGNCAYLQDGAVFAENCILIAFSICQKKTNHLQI
UniProt Q9DCF9: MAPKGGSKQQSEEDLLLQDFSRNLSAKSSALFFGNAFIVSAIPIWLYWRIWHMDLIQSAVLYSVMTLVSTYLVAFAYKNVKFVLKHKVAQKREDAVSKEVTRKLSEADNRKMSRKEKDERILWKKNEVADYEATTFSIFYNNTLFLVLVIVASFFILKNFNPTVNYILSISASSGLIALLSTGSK
UniProt Q9EQQ2: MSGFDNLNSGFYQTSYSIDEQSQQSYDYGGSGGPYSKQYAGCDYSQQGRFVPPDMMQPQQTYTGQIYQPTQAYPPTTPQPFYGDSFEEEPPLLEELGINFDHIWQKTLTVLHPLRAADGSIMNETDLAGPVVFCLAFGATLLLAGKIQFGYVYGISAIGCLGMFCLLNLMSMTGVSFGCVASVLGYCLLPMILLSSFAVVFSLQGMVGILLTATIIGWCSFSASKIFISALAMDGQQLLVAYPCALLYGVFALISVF
UniProt Q9EP72: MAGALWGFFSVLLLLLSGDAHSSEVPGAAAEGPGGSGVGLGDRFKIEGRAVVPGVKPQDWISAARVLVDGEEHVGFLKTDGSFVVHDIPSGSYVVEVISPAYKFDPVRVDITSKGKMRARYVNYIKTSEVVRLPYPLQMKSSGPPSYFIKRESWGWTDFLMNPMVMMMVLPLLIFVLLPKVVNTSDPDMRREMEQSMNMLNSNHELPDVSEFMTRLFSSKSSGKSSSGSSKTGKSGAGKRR
UniProt Q9DC40, whole entry: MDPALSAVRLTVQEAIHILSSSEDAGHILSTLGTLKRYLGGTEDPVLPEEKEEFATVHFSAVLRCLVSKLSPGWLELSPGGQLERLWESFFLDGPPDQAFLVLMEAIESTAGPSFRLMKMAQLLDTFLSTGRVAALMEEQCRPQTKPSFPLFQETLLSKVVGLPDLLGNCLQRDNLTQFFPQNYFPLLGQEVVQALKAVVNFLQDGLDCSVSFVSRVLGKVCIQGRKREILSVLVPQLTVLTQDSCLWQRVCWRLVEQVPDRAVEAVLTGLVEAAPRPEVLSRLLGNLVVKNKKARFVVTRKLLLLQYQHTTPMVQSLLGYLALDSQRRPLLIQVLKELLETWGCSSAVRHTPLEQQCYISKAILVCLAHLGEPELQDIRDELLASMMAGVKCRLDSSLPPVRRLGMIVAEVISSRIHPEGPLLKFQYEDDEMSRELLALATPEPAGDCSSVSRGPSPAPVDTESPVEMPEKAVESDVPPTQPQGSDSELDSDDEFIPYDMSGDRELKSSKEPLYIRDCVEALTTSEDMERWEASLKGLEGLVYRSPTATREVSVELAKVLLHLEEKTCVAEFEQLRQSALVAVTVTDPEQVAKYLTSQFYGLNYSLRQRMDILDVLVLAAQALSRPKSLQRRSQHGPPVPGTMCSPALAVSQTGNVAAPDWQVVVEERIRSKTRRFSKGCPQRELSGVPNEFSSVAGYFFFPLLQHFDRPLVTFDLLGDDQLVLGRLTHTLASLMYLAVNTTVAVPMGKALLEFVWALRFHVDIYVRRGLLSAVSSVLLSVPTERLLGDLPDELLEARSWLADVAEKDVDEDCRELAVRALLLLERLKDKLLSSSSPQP
UniProt Q9ERA0: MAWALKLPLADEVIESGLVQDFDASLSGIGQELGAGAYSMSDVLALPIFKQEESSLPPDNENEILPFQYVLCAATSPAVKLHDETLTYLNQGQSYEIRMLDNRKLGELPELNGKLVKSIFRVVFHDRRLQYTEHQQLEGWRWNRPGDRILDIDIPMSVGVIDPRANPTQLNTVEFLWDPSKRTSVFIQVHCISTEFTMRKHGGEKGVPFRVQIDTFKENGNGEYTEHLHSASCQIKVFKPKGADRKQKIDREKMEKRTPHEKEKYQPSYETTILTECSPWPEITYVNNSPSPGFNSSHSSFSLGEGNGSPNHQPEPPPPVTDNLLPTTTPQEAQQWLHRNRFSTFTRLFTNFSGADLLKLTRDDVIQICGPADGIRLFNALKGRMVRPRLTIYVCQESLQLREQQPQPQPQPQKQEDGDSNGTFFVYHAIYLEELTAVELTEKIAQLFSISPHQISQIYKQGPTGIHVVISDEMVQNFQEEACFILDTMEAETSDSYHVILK
UniProt Q9DBD5: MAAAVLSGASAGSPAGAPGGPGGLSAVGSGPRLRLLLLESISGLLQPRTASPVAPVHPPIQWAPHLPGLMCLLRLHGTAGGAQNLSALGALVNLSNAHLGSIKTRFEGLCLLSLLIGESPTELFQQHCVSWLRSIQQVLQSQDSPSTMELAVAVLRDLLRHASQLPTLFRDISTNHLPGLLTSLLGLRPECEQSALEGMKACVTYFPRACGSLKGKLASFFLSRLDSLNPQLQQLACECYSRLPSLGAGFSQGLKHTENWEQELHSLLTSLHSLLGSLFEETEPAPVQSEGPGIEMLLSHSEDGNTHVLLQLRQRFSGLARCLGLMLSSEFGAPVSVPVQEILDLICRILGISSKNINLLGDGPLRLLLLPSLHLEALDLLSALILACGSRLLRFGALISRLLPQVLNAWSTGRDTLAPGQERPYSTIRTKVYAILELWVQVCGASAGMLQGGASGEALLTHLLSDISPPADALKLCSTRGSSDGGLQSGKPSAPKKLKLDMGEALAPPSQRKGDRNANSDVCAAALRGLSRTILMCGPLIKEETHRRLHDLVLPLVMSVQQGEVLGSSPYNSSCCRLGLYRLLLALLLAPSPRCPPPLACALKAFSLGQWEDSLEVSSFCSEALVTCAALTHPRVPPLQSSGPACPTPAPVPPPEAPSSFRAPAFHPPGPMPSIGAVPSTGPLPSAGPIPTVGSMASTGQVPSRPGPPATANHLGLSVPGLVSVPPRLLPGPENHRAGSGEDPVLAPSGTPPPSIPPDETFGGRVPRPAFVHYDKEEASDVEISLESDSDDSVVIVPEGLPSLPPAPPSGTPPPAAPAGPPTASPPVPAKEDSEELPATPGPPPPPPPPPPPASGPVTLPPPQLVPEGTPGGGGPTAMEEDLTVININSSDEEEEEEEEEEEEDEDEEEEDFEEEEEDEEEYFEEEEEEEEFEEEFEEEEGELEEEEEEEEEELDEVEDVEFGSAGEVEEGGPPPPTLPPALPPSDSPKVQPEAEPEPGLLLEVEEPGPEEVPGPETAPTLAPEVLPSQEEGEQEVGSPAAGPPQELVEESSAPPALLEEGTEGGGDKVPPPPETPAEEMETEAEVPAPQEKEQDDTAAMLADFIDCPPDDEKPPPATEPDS
UniProt Q9DBH0: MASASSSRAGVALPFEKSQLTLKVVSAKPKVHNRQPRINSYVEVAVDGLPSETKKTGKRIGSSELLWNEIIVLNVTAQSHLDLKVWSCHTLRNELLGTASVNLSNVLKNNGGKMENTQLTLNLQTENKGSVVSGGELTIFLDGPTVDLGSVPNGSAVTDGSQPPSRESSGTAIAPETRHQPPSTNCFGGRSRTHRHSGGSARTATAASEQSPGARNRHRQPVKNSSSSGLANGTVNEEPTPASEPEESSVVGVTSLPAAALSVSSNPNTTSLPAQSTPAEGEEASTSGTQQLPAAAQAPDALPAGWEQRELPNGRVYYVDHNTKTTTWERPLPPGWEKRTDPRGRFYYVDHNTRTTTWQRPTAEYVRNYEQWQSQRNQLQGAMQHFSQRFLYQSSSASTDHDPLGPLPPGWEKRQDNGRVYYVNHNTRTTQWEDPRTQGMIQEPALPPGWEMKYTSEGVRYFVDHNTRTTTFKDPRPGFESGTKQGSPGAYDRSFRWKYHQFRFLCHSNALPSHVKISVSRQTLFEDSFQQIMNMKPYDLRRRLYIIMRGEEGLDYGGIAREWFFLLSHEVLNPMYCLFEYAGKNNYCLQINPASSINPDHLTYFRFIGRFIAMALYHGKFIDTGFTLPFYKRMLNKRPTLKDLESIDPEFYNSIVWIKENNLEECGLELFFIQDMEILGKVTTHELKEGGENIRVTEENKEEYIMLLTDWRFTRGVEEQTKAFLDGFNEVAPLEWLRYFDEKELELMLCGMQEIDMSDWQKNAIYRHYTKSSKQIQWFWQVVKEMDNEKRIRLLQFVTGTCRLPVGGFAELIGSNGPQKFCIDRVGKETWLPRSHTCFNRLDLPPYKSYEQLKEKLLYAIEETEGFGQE
UniProt Q9DBB8: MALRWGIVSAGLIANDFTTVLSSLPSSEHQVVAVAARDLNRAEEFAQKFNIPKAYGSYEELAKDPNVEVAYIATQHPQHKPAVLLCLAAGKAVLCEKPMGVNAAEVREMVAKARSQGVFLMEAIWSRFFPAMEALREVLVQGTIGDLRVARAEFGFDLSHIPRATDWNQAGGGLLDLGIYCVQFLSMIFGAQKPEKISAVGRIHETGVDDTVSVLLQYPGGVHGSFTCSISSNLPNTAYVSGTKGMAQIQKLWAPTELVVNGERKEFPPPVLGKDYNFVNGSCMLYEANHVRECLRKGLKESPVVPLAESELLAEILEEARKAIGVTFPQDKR
UniProt Q9DBJ1: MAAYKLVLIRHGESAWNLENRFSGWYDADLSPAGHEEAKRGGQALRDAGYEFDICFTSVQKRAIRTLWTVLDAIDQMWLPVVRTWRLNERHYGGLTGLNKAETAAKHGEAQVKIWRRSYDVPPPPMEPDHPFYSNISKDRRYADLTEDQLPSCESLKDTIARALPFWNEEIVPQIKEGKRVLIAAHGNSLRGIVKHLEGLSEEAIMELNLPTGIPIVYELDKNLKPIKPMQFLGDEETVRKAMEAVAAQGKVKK
UniProt Q9EPK5, whole entry: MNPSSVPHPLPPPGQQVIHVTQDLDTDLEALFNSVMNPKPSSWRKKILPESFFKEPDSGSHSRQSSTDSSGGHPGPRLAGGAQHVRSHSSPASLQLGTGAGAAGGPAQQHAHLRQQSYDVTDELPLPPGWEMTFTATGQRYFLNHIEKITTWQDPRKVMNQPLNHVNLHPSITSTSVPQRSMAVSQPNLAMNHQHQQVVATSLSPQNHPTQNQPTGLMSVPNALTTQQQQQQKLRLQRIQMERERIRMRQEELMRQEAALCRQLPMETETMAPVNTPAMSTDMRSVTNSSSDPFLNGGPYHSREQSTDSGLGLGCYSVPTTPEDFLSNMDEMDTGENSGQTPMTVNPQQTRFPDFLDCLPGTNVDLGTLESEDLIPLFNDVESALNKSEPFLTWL

This is one part of the list. Small differences around the control level are noise.

Compound in this experiment: CN[C@@H]1C[C@H]2O[C@@](C)([C@@H]1OC)n1c3ccccc3c3c4c(c5c6ccccc6n2c5c31)C(=O)NC4 [staurosporine]
Kind of experiment: log2 fold change of tryptic peptide abundance, ligand vs vehicle (limited proteolysis) (log2 ratio); higher = more trypsin-susceptible (destabilized). The conditions noted are these: ligand concentration: 20 uM; sample: mouse liver crude lysate; replicate design: treated separately.
As for “UniProt Q9DCC3 (peptide sequence: GPAVNGEQPLKV, peptide start residue: 231)”, the log2 fold change was -0.426.

“UniProt Q9ERA6 (peptide sequence: DSDEERPSFGGKR, peptide start residue: 59)”: the log2 fold change turned out to be 0.336.

Take “UniProt Q9EQI8 (peptide sequence: SLYSDHELR, peptide start residue: 80)”: the log2 fold change amounted to 0.065. Regarding “UniProt Q9DBU3 (peptide sequence: EYDAQLR, peptide start residue: 91)”, the log2 fold change came to 0.208.

For “UniProt Q9EQS3 (peptide sequence: HHLGAATPENPEIELLR, peptide start residue: 50)”, the log2 fold change is -0.139. As to “UniProt Q9EQ09 (peptide sequence: GKIDTLTLK, peptide start residue: 195)”, the log2 fold change was found to be 0.247. To “UniProt Q9DCF9 (peptide sequence: KLSEADNR, peptide start residue: 103)” belongs 0.0851; to “UniProt Q9EQQ2 (peptide sequence: TLTVLHPLR, peptide start residue: 107)”, 0.264. Next, “UniProt Q9EP72 (peptide sequence: VLVDGEEHVGFLK, peptide start residue: 66)”: -0.171. Consider “UniProt Q9DBE8 (peptide sequence: ILVNSQYTASVFKETFK, peptide start residue: 173)”, for which the log2 fold change stood at 0.173.

Regarding “UniProt Q9DC40 (peptide sequence: EVSVELAK, peptide start residue: 552)”, the log2 fold change was -0.386. To “UniProt Q9EQU3 (peptide sequence: KDVVVLVILRPDAHR, peptide start residue: 963)” belongs 0.511; to “UniProt Q9DB43 (peptide sequence: RRPALGWLAQLLR, peptide start residue: 237)”, 0.224. Regarding “UniProt Q9EQY0 (peptide sequence: IEKEALDGPIVR, peptide start residue: 849)”, the log2 fold change is 0.619. In the case of “UniProt Q9DB26 (peptide sequence: IGEIVAEMDVPLHCR, peptide start residue: 36)”, the log2 fold change is -0.411. “UniProt Q9DBI0 (peptide sequence: CFQLPCSTR, peptide start residue: 4)”: the log2 fold change is 0.245. Next, “UniProt Q9ERD7 (peptide sequence: YLTVATVFR, peptide start residue: 310)”: -0.11; “UniProt Q9ERA0 (peptide sequence: LFTNFSGADLLK, peptide start residue: 348)”: 0.29; “UniProt Q9EPK6 (peptide sequence: KVLFALCSLLR, peptide start residue: 292)”: 0.53. On to “UniProt Q9ERL7 (peptide sequence: TTDDLTETWLK, peptide start residue: 125)”, for which the log2 fold change was -0.321. Next, “UniProt Q9EQC5 (peptide sequence: APGGFMSNR, peptide start residue: 263)”: 0.207; “UniProt Q9DBD5 (peptide sequence: LLPGPENHR, peptide start residue: 729)”: 0.099; “UniProt Q9DBH0 (peptide sequence: VWSCHTLR, peptide start residue: 85)”: 0.416. As for “UniProt Q9EPL9 (peptide sequence: SYGADLPLEK, peptide start residue: 64)”, the log2 fold change is -0.459. On to “UniProt Q9DBB8 (peptide sequence: AEFGFDLSHIPR, peptide start residue: 152)”, for which the log2 fold change was -0.37. Next, “UniProt Q9DBJ1 (peptide sequence: LVLIRHGESAWNLENR, peptide start residue: 6)”: -0.518; “UniProt Q9DCI9 (peptide sequence: IKNNIDICPECGHLK, peptide start residue: 102)”: 0.256.

Regarding “UniProt Q9EPK5 (peptide sequence: ITTWQDPR, peptide start residue: 149)”, the log2 fold change is 0.169.
